In PubChem BioAssay (EPA / NIEHS):
Inconclusive means that the source gave no clear call. Such entries were picked first, then a sample of the others. For some of these results: Potencies beside an inconclusive call are fits to weak or partial responses and may not hold up. Where a structure was tested more than once in an assay, its records may differ in their call. The source made the active and inactive calls. Rule for the calls: active = hit-call score of the fitted dose curve at least 0.9, where 1 is the maximum; inconclusive = response in the unintended direction; inactive = score below 0.9.

Chains of the proteins cited; added tags and fusions are not shown. Lines headed by an entry give the natural chain unless they say otherwise; changes in a name come on top.
UniProt P22303: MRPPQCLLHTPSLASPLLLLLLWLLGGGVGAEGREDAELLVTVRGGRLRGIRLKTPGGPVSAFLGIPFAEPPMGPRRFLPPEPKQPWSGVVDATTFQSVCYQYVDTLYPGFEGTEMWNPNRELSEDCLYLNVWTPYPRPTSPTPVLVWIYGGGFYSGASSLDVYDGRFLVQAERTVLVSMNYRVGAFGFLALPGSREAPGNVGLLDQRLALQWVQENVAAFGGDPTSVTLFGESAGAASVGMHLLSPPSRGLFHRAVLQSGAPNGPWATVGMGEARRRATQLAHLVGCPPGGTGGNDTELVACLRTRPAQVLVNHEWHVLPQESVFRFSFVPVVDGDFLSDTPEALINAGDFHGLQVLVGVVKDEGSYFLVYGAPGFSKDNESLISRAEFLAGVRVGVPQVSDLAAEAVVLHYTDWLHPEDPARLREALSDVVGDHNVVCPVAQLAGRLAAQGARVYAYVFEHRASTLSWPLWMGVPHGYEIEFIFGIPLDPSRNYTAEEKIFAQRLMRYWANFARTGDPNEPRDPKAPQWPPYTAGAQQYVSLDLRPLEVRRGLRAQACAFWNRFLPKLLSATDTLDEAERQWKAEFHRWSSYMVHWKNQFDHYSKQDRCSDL
UniProt P27815: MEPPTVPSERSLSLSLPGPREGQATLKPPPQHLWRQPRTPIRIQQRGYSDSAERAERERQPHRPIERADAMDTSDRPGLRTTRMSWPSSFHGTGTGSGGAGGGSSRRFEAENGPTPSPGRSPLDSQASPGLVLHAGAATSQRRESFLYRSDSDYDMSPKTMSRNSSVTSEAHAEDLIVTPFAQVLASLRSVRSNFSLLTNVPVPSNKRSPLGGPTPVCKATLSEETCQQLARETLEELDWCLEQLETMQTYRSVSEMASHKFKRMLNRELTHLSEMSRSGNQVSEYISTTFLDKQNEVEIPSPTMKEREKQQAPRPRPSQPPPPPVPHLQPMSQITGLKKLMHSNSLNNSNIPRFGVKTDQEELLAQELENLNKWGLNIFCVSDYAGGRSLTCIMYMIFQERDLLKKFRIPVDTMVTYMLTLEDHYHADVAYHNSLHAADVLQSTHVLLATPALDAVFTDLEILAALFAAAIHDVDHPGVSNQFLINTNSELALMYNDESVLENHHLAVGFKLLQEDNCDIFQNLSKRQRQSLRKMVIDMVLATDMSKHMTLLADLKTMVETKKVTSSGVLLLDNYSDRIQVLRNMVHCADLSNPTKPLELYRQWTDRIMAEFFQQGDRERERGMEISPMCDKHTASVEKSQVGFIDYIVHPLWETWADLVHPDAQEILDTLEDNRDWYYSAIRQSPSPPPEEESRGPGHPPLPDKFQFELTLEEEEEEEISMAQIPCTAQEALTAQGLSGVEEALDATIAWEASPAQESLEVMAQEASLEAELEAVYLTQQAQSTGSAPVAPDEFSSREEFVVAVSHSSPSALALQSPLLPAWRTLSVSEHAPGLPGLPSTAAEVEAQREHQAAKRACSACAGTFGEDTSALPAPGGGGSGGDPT
UniProt P37136: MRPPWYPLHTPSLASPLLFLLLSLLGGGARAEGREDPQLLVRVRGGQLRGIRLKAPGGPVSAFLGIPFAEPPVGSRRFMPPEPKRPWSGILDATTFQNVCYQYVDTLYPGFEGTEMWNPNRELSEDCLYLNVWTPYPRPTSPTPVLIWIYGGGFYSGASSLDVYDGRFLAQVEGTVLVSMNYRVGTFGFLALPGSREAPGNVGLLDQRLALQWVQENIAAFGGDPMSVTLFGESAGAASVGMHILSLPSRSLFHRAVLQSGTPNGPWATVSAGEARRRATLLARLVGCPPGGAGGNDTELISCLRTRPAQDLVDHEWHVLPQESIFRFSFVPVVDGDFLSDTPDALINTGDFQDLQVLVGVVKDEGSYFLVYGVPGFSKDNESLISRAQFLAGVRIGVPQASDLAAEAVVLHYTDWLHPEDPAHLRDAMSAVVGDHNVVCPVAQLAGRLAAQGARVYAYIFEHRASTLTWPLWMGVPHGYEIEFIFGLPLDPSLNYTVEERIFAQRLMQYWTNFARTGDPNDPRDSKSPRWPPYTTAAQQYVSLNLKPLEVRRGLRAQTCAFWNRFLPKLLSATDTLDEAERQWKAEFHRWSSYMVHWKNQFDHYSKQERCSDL
UniProt P03372, whole entry, looked up: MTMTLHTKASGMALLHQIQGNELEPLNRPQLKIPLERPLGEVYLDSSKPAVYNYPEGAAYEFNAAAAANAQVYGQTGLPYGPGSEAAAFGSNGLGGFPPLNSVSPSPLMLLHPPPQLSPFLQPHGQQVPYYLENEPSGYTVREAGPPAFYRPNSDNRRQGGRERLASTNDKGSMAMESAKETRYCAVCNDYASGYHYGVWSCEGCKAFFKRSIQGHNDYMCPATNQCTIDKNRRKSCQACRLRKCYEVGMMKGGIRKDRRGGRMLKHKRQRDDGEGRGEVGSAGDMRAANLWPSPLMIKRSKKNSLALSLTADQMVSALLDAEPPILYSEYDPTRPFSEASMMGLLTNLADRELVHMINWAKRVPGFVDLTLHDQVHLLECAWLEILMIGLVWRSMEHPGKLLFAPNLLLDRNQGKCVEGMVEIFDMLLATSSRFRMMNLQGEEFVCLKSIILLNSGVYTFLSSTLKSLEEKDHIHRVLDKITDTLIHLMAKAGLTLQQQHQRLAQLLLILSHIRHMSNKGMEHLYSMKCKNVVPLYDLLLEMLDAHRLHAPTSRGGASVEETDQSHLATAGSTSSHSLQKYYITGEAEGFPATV
UniProt P11712, whole entry, looked up: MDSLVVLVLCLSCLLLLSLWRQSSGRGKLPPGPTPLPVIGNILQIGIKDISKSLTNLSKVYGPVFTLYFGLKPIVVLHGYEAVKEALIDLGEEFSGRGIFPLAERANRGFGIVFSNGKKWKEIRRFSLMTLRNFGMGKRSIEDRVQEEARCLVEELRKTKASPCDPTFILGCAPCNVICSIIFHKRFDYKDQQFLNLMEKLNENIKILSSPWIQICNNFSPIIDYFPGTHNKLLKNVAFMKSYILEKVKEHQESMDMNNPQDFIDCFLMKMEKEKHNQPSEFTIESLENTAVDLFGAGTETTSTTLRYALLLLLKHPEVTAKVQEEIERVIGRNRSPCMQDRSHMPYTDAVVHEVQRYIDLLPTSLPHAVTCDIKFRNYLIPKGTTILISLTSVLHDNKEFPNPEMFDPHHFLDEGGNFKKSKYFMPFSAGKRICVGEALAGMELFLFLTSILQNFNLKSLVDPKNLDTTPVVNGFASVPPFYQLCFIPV
UniProt P17706: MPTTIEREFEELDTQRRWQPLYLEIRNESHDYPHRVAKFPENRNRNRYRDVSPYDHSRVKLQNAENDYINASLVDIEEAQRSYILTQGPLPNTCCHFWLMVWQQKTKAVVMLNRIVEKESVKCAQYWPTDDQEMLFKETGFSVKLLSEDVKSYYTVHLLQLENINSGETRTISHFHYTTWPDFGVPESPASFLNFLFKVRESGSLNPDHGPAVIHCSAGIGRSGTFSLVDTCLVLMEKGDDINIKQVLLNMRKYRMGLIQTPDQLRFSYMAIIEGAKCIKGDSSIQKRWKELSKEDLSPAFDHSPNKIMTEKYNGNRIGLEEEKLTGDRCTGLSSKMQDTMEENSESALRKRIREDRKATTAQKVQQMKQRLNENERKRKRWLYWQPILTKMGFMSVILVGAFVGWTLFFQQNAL
UniProt Q15722: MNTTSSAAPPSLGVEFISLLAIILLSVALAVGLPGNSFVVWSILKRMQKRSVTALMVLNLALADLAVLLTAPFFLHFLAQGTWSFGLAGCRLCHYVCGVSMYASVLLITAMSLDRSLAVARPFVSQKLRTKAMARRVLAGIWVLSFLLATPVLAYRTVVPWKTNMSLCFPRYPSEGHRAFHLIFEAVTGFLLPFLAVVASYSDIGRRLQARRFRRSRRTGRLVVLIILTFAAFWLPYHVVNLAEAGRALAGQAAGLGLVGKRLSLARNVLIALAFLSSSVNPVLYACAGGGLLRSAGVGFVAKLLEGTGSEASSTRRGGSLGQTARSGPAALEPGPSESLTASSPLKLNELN
UniProt P57717: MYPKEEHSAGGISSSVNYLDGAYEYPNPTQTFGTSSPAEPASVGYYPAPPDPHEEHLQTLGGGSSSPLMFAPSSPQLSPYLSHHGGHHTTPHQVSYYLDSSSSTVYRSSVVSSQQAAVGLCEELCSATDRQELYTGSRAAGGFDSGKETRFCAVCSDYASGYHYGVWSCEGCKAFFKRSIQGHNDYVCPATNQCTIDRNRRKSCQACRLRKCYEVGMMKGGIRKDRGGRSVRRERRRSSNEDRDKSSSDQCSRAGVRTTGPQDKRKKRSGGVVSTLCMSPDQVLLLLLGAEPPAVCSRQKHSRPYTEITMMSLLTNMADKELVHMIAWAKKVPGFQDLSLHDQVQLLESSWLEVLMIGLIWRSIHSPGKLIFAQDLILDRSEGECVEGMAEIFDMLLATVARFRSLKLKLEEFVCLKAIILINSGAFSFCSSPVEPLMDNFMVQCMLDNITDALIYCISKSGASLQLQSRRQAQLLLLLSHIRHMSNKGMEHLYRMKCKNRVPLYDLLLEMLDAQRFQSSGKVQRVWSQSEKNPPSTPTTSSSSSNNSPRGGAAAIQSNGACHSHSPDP
UniProt P35372, whole entry, looked up: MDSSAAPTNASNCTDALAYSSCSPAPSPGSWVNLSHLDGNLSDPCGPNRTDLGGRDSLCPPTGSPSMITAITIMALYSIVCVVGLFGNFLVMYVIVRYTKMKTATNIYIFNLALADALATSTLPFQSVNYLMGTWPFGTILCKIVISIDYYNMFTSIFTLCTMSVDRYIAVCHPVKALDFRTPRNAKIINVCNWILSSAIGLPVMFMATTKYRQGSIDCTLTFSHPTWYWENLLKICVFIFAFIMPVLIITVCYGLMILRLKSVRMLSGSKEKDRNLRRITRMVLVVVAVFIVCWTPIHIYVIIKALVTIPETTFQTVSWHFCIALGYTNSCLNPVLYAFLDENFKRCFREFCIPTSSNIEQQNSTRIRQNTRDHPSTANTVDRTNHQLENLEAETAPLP
UniProt P48730: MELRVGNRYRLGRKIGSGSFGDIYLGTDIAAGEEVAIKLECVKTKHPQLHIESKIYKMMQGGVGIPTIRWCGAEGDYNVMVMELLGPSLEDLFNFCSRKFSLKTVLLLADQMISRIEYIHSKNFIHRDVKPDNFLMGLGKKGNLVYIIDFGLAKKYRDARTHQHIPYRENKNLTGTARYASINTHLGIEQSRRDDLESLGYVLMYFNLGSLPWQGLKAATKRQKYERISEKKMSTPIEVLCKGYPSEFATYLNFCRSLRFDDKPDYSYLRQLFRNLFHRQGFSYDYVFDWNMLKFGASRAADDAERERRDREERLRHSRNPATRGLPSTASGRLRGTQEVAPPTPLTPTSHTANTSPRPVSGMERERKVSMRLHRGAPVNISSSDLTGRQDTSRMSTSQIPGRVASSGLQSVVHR
UniProt P10276, whole entry, looked up: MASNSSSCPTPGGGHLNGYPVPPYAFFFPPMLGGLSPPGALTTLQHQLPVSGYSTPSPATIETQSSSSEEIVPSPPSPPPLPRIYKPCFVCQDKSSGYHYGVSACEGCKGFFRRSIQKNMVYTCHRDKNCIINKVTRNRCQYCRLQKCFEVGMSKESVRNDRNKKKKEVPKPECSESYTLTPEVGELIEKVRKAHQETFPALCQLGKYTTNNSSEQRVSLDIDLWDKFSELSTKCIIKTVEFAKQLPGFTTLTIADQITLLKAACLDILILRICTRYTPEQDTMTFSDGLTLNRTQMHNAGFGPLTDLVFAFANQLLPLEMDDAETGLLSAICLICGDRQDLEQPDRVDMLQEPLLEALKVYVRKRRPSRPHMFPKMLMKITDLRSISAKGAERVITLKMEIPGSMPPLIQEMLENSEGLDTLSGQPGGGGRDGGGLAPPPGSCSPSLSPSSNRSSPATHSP
UniProt P08659, whole entry, looked up: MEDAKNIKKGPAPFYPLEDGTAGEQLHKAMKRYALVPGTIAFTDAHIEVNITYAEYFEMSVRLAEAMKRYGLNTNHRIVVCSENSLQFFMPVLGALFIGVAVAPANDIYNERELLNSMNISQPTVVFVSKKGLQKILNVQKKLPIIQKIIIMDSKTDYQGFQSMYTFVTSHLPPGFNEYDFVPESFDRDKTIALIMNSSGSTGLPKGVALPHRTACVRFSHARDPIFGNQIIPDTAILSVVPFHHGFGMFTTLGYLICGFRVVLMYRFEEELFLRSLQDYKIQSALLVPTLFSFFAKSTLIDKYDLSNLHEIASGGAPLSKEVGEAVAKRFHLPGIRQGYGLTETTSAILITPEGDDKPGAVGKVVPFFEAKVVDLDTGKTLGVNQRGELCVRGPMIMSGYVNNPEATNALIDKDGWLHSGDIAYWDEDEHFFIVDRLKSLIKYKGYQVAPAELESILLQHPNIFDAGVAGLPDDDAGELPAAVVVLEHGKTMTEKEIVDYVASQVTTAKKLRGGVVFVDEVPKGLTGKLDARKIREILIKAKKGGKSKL

Assays:
[1] = ArunA_CellTiter_hNP: Viability Assessment in the ArunA Biomedical's Oris Neural Crest (hNC) Cell Migration Assay (AID 2283753)
Procedure, shortened: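 Viability read with CellTiter 96 Aqueous One after 72 h chemical exposure of human hNP1 neuroprogenitors, which were plated on Matrigel in LIF/bFGF medium 16 h beforehand. Endpoint fitted in positive direction relative to DMSO.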

[2] = ArunA_Migration_hNP: ArunA Biomedical's Oris Neuroprogenitor (hNP) Cell Migration Assay (AID 2283754)
Procedure, shortened: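 Readout is calcein-AM fluorescence (ex494/em517) of cells migrating into the detection zone, relative to DMSO. hNP1 cells (H9-derived) grown on Matrigel behind stoppers 16 h, then stoppers pulled and chemical applied 72 h; cytochalasin D as control.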

[3] = ArunA_NOG_NeuritesPerNeuron: ArunA Biomedical's Neurite Outgrowth (NOG) Assay for Neurites Per Neuron (AID 2283758)
Procedure, shortened: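 Differentiated human H9-derived neurons exposed to chemicals for 48 h from seeding, then stained with Hoechst and βIII-tubulin/DyLight 488. Automated imaging counted neurites (processes >10 um) per valid neuron; loss of signal versus DMSO scored.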

[4] = target: human Acetylcholinesterase (AChE), ACHE (gene 43) (UniProt P22303); test: NVS_ENZ_hAChE: NovaScreen (NVS) Enzymatic Assay for human Acetylcholinesterase (AChE) (AID 2283129)
Procedure, shortened: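 Actives from a duplicate single-point screen (25 uM) were followed up in concentration series. Enzyme activity read by absorbance (colorimetric) 0.33 hour after dosing, cell-free, normalized to DMSO, with loss of signal scored.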

[5] = target: human Phosphodiesterase 4A1 (PDE4A1), PDE4A (gene 5141) (UniProt P27815); test: NVS_ENZ_hPDE4A1: NovaScreen (NVS) Enzymatic Assay for human Phosphodiesterase 4A1 (PDE4A1) (AID 2283191)
Procedure, shortened: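 Fluorescent substrate turnover by recombinant PDE4A1 read after 1 h by mobility-shift separation. Primary duplicate screen at 25 uM; hits retested in concentration series with a 50 uM maximum, relative to DMSO.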

[6] = target: rat Acetylcholinesterase (AChE), Ache (gene 83817) (UniProt P37136); test: NVS_ENZ_rAChE: NovaScreen (NVS) Enzymatic Assay for rat Acetylcholinesterase (AChE) (AID 2283233)
Procedure, shortened: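 Compounds first screened at 25 uM in duplicate, then those passing threshold tested in concentration series up to 50 uM, against AChE from rat brain membranes. Enzyme activity read by absorbance at 0.33 h; inhibition scored versus DMSO.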

[7] = target: Estrogen receptor (Homo sapiens) + Estrogen receptor beta (Homo sapiens) (UniProt P03372+Q92731); test: OT_ER_ERaERb_1440: Odyssey Thera (OT) 24-hour HEK293T Protein-Complementation Assay for Estrogen Receptor-alpha/-beta Homodimer (AID 2283356);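 note: heteromer of ER alpha and ER beta binding domains; hits raise reporter fluorescence and both agonists and antagonists give an increase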
Procedure, shortened: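 Fragment complementation between ER alpha (310-547) and ER beta (263-489) ligand-binding domains in HEK293T cells; signal read 24 h post-dosing by laser scanning cytometer. Gain of fluorescence relative to DMSO fitted.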

[8] = target: Sodium channel protein type 1 subunit alpha (Rattus norvegicus) (UniProt P04774); test: NVS_IC_rNaCh_site2: NovaScreen (NVS) Ion Channel Assay for rat Sodium Channel, Site 2 (NaCh) (AID 2283322);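 note: hit means loss of radioligand binding signal relative to DMSO so AC50 marks displacement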
Procedure, shortened: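 Initial duplicate single-point testing at 25 uM, followed by concentration-response runs for actives. Binding of radioligand to rat forebrain membranes quantified after 1 h via filter-based radiodetection.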

[9] = target: human CYP2C9, CYP2C9 (gene 1559) (UniProt P11712); test: NVS_ADME_hCYP2C9: NovaScreen (NVS) CYP450-related Enzyme Activity (ADME) Assay for human CYP2C9 (AID 2283108)
Procedure, shortened: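 Fluorescence readout of CYP2C9 activity (SF9-expressed human enzyme) at 0.75 h. The primary screen used 10 uM in duplicate, with concentration-response follow-up for actives; acetonitrile was the negative control.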

[10] = target: human Protein Tyrosine Phosphatase Non-receptor Type 2 (PTPN2), PTPN2 (gene 5771) (UniProt P17706); test: NVS_ENZ_hPTPN2: NovaScreen (NVS) Enzymatic Assay for human Protein Tyrosine Phosphatase Non-receptor Type 2 (PTPN2) (AID 2283207)
Procedure, shortened: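 Activity measured as fluorescence after mobility-shift separation of substrate and product, 1 h after compound. Duplicate single-point 25 uM primary testing, concentration series for actives; inhibition scored as signal loss relative to DMSO baseline.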

[11] = target: human Leukotriene B4 Receptor 1 (LTB4-BLT1), LTB4R (gene 1241) (UniProt Q15722); test: NVS_GPCR_hLTB4_BLT1: NovaScreen (NVS) G Protein-Coupled Receptor Assay for human Leukotriene B4 Receptor 1 (LTB4-BLT1) (AID 2283271)
Procedure, shortened: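 Cell-free human neutrophil receptor preparation, 1 h exposure, radioligand binding read by filter scintillation counting. Single 25 uM duplicate screen, then concentration series topping at 50 uM; binding loss scored against DMSO baseline.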

[12] = target: zebrafish Estrogen Receptor (ER1), esr1 (gene 259252) (UniProt P57717); test: ATG_zfER1_XSP2: Attagene TRANS-FACTORIAL Multi-Species (XSP2) HepG2 Assay for zebrafish Estrogen Receptor (ER1) (AID 2283816)
Procedure, shortened: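 After 24 h compound exposure, RNA from transfected HepG2 cells was reverse-transcribed and reporter transcripts resolved by capillary electrophoresis. The TRANS format reads exogenous zebrafish ER1-Gal4 chimera activity on GAL4-UAS elements; gain of signal against DMSO.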

[13] = system: frog Estrogen Receptor (ER2), gene 100174814; test: ATG_frER2_XSP2: Attagene TRANS-FACTORIAL Multi-Species (XSP2) HepG2 Assay for frog Estrogen Receptor (ER2) (AID 2283828)
Procedure, shortened: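 Read-out: reporter transcript levels by RT-PCR with 6-FAM primer extension, HpaI digestion and capillary electrophoresis, scored as induction over DMSO control. Transfected HepG2 carrying Xenopus ER2–GAL4 chimera; compounds incubated 24 h.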

[14] = TAMU_PeakParms_SingleDonor1434_QT: Texas A&M University (TAMU) 1.5-hr Human Induced Pluripotent Stem Cell (iPSC)-derived Cardiomyocytes Calcium (Ca+2) Flux Assay for Cardiotoxicity: QT (decay-rise ratio) (AID 2284235)
Procedure, shortened: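 Decay/rise ratio of calcium-flux fluorescence scored after 90 min exposure (37C) of donor 1434 iPSC cardiomyocytes to 0.2–100 uM (0.5% DMSO). Beat-cessation and severe-notch points removed; POD is EC05, a 5% rise over DMSO.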

[15] = target: human Opioid Receptor Mu (Opiate Mu), OPRM1 (gene 4988) (UniProt P35372); test: NVS_GPCR_hOpiate_mu: NovaScreen (NVS) G Protein-Coupled Receptor Assay for human Opioid Receptor Mu (Opiate Mu) (AID 2283290);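 note: hits lower bound tracer signal versus DMSO meaning displacement of the ligand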
Procedure, shortened: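 Primary screen in duplicate at 25 uM, with actives followed in concentration series. CHO-derived receptor membranes, cell-free; bound radioligand read by scintillation counting after filtration at 2.5 h, decrease scored against DMSO.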

[16] = ATG_M_06_XSP2: Attagene TRANS-FACTORIAL Multi-Species (XSP2) HepG2 Assay for M06 Transcription Factor (Internal Marker) (AID 2283811);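 for outcome: internal background marker reporter mRNA measured by RT-PCR and capillary electrophoresis; hits are increases in signal above the DMSO baseline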
Procedure, shortened: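 Internal-marker reporter transcript, quantified by RT-PCR, 6-FAM labelling, HpaI digestion and capillary electrophoresis, 24 hours after dosing transfected HepG2 cells with 3 nM 6-alpha-fluorotestosterone and 1.5 nM norgestrel present; DMSO baseline.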

[17] = target: human Casein Kinase 1-delta (CK1D), CSNK1D (gene 1453) (UniProt P48730); test: NVS_ENZ_hCK1D: NovaScreen (NVS) Enzymatic Assay for human Casein Kinase 1-delta (CK1D) (AID 2283148)
Procedure, shortened: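 Recombinant human CK1-delta, cell-free; fluorescent substrate with electrophoretic mobility-shift separation of product, read 1 h after dosing. Single 25 uM duplicate screen, then concentration-response up to 50 uM; loss of signal vs DMSO.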

[18] = target: Retinoic acid receptor alpha (Homo sapiens) (UniProt P10276); test: NVS_NR_hRARa_Agonist: NovaScreen (NVS) Nuclear Receptor Binding Assay for human Retinoic Acid Alpha Receptor Agonism (RAR) (AID 2283361)
Procedure, shortened: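 Agonist-mode TR-FRET binding format using extracted protein, measured at 2 h post-dosing. Initial duplicate single-point screen at 25 uM preceded concentration series for actives; activity was normalized to DMSO baseline.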

[19] = target: Luciferin 4-monooxygenase (Photinus pyralis) (UniProt P08659); test: CCTE_Simmons_QuantiLum_inhib_2: CCTE's Firefly Luciferase Inhibition Assay, Simmons Lab (AID 2283767);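 for AC50: potency for inhibitors that lower luciferase luminescence relative to DMSO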
Procedure, shortened: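 First, 5 ng purified luciferase in phosphate buffer with BSA is dispensed per well. Next, test chemicals (5 nM to 87.5 uM final, 0.5% DMSO) are added and incubated 30 min at 37C in darkness. Finally, luciferin reagent is injected and luminescence read kinetically.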

[20] = system: zebrafish Androgen Receptor (AR), gene 100005148; test: ATG_zfAR_XSP1: Attagene TRANS-FACTORIAL Multi-Species (XSP1) HepG2 Assay for zebrafish Androgen Receptor (AR) (AID 2283771)
Procedure, shortened: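 Gain-of-signal versus DMSO was measured as reporter transcripts quantified by RT-PCR, fluorescent labelling and capillary electrophoresis after 24 h chemical exposure. The cells were HepG2 expressing a chimeric zebrafish AR-GAL4, co-stimulated with 3 nM 6-alpha-fluorotestosterone.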

In the case of CCC(C)Nc1c([N+](=O)[O-])cc(C(C)(C)C)cc1[N+](=O)[O-] (centres undefined), the outcome [1] is reported as “inactive”, the AC50 [2] is reported as inconclusive: 5 µM and the AC50 [3] is reported as inconclusive: 5 µM.
For CCOC(=O)CC(SP(=S)(OC)OC)C(=O)OCC (centres undefined), the AC50 [4] was inconclusive: 25 µM, the outcome [5] was “inactive” and the AC50 [6] was inconclusive: 4.96 µM.
With COCCOCCO the AC50 [7] was inconclusive: 50 µM.
For N#CCc1ccc(Cl)cc1, the outcome [8] was “inactive”.
For OC(c1ccc(Cl)cc1)(c1cncnc1)c1ccccc1Cl (centres undefined), the AC50 [9] was active: 2.35 µM, the AC50 [10] was inconclusive: 25 µM and the outcome [11] was “inactive”.
In the case of COC(=O)c1ccccc1S(=O)(=O)NC(=O)N(C)c1nc(C)nc(OC)n1, the outcome [10] is reported as “inactive”.
For CCC(C)n1c(=O)[nH]c(C)c(Br)c1=O (centres undefined), the outcome [4] was “inactive” and the AC50 [6] was inconclusive: 25 µM.
For Cc1cccc(C)c1N, the outcome [7] was “inactive”.
In the case of CCCCC(CC)COC(=O)c1ccccc1C(=O)OCC(CC)CCCC (centres undefined), the outcome [9] is reported as “inactive”, the AC50 [12] is reported as inconclusive: 3.14 µM and the AC50 [13] is reported as inconclusive: 100 µM. For the same compound, the AC50 [14] was inconclusive: 0.0491 µM.
In the case of CN(CCCC(=O)c1cccnc1)N=O, the AC50 [15] is reported as inconclusive: 1.13 µM.
For N#Cc1c[nH]cc1-c1cccc2c1OC(F)(F)O2, the outcome [16] was “inactive” and the AC50 [12] was inconclusive: 55.1 µM.
With Clc1ccc(C(Cl)(Cl)Cl)cc1 the AC50 [17] was inconclusive: 0.0741 µM and the AC50 [18] was inconclusive: 25 µM.
In the case of COCc1cnc(C2=NC(C)(C(C)C)C(=O)N2)c(C(=O)O)c1 (centres undefined), the outcome [1] is reported as “inactive”, the AC50 [2] is reported as inconclusive: 0.721 µM and the AC50 [3] is reported as inconclusive: 50 µM.
For O=C(O)C(F)(F)C(F)(F)C(F)(F)C(F)(F)C(F)(F)C(F)(F)C(F)(F)C(F)(F)F, the outcome [19] was “inactive”.
For C=CC(N)=O, the outcome [14] was “inactive”.
For CCOP(=S)(OCC)SCn1c(=O)oc2cc(Cl)ccc21, the AC50 [5] was active: 9.57 µM, the AC50 [11] was inconclusive: 25 µM and the outcome [19] was “inactive”. The AC50 [20] was inconclusive: 100 µM.
With CCS(=O)(=O)c1cccnc1S(=O)(=O)NC(=O)Nc1nc(OC)cc(OC)n1 the AC50 [8] was inconclusive: 46.2 µM.
With COC(=O)N(OC)c1ccccc1COc1ccn(-c2ccc(Cl)cc2)n1 the AC50 [17] was inconclusive: 25 µM, the AC50 [20] was inconclusive: 0.000914 µM and the AC50 [13] was inconclusive: 10 µM.
For ClC1=C(Cl)C2(Cl)C3C(Cl)C(Cl)CC3C1(Cl)C2(Cl)Cl (centres undefined), the AC50 [15] was inconclusive: 25 µM.
For CC(C)(c1cc(Cl)c(O)c(Cl)c1)c1cc(Cl)c(O)c(Cl)c1, the AC50 [20] was inconclusive: 100 µM.
With c1cc2ccc3cccc4ccc(c1)c2c34 the AC50 [18] was inconclusive: 47.7 µM, the AC50 [16] was inconclusive: 100 µM and the outcome [12] was “inactive”. The outcome [13] was “inactive” and the AC50 [14] was inconclusive: 50 µM.
In the case of c1ccc2c(c1)Nc1ccccc1S2, the AC50 [17] is reported as inconclusive: 25 µM and the outcome [16] is reported as “inactive”.
In the case of CCCCOCC1CO1 (centres undefined), the AC50 [15] is reported as inconclusive: 0.949 µM and the AC50 [18] is reported as inconclusive: 25 µM.
With O=c1[nH]c(=O)n(Cl)c(=O)n1Cl the AC50 [19] was inconclusive: 17 nM.
